Reference: paper PMC8688469
Results are given in words; binding and its absence hold for the method and conditions named. For part of these data: In cells and extracts the contact can be indirect. Some binding calls cover weakened binding; strength is not graded here.

By UniProt entry, the sequences of proteins in these tests, tags left out.
UniProt Q96SN8: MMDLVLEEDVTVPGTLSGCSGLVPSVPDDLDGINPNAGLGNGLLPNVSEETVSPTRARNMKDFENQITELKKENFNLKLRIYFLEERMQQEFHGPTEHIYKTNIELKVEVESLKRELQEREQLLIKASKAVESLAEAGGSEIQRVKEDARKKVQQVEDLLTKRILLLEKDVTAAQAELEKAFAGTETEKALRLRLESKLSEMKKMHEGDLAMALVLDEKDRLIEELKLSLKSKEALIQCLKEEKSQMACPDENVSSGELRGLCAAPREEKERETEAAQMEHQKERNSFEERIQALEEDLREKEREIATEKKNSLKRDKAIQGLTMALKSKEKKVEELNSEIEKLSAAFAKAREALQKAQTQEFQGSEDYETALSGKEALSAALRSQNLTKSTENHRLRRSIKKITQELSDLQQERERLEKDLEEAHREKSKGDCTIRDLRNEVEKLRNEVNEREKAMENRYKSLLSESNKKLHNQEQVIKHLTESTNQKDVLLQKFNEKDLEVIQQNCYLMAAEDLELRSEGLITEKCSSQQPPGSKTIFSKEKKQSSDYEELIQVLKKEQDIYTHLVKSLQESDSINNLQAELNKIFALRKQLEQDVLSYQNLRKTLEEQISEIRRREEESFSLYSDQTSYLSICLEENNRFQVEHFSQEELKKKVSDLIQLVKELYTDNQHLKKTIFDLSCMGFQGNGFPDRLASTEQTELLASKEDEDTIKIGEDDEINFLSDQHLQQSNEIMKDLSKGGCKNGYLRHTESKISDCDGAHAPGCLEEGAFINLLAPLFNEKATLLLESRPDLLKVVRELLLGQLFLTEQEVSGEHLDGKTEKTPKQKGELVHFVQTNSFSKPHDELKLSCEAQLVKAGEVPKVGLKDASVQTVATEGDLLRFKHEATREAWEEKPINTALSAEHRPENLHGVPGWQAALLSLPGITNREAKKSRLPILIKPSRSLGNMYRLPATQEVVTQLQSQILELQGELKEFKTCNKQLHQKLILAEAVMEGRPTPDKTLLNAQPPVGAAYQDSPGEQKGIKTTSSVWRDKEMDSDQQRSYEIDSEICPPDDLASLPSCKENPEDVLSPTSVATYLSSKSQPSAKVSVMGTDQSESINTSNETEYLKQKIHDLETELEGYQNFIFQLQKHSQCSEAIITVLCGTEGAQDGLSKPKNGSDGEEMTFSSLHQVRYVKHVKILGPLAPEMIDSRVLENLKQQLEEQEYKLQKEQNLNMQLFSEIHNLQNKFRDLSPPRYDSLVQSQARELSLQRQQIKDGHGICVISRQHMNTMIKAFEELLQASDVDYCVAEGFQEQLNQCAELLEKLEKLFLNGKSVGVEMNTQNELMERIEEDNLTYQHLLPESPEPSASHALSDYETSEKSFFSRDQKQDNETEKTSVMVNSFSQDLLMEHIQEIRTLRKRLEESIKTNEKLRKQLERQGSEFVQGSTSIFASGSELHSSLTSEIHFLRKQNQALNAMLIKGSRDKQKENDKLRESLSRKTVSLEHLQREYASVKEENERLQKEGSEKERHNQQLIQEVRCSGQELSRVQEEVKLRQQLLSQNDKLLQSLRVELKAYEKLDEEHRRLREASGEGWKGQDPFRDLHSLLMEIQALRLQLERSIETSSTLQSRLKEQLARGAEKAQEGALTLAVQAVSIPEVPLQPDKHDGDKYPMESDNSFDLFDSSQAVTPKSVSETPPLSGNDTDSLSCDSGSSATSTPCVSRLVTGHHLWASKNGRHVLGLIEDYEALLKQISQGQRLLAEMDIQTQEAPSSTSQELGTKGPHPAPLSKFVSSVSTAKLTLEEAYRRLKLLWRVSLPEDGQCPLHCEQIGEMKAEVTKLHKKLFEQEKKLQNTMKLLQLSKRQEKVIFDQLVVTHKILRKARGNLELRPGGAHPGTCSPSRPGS
UniProt P49841: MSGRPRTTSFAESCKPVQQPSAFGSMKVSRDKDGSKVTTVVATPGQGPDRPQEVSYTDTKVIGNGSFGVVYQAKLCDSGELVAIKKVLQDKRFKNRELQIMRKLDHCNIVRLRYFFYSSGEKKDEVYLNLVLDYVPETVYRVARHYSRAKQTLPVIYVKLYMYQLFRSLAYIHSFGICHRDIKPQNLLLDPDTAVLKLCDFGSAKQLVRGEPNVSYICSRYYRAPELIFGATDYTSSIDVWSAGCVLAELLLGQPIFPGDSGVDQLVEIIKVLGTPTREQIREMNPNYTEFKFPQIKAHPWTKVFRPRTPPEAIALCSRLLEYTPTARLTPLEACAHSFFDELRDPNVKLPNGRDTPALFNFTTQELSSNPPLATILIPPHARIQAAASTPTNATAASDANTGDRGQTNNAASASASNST

Tests used:
Myc-tagged CDK5RAP2 = Myc-tagged CDK5RAP2 (UniProt Q96SN8); assay: co-IP; lysates of cells co-transfected with Myc-CDK5RAP2 and FLAG-GSK3β; IP with Myc or FLAG antibody on protein A/G agarose beads, overnight at 4 °C; lysis and wash buffer 50 mM Tris pH 8.0, 150 mM NaCl, 1% NP-40, 10 mM EDTA, 5% glycerol; both IPs blotted with Myc and FLAG antibodies
GST-CDK5RAP2 = GST-CDK5RAP2 (UniProt Q96SN8); assay: pull-down; GST-CDK5RAP2 (1 μmole) bound to glutathione-agarose beads mixed with GSK3β (2 μg) at 4 °C for 2 h; washed 4 times with 20 mM Tris-HCl pH 8.0, 200 mM NaCl, 1 mM EDTA, 0.5% NP-40; blots for GST and GSK3β; both purified
FLAG-tagged GSK3β = FLAG-tagged GSK3β (UniProt P49841); assay: co-IP; lysates of cells co-transfected with Myc-CDK5RAP2 and FLAG-GSK3β; IP with Myc or FLAG antibody on protein A/G agarose beads, overnight at 4 °C; lysis and wash buffer 50 mM Tris pH 8.0, 150 mM NaCl, 1% NP-40, 10 mM EDTA, 5% glycerol; both IPs blotted with Myc and FLAG antibodies

**Q.** “FLAG-tagged GSK3β (from UniProt P49841 1-420) (enzyme)” was tested. Which binding (Myc-tagged CDK5RAP2) did it give?
**A.** Its binding is “binds”.

**Q.** With “GSK3β protein (14-306) (from UniProt P49841 1-420) (enzyme)” as the substance, how does the binding (GST-CDK5RAP2) read?
**A.** The binding was “binds”.

**Q.** Which binding (FLAG-tagged GSK3β) does the source give for “Myc-tagged CDK5RAP2 (from UniProt Q96SN8 1-1893)” here?
**A.** Its binding is “binds”.
